Reference: PubChem BioAssay AID2685 (National Center for Advancing Translational Sciences (NCATS), 2010)
The list shows a part of the results. Further columns of the screen follow, without active or inactive calls. The list favours compounds with an active or inconclusive main result. The note in brackets gives the kind of curve behind each potency; many fits are weak.

Assay: qHTS Assay for Lipid Storage Modulators in Drosophila S3 Cells;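 for cell number change: cells counted by Cell Tracker Red CMTPX staining in the red channel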
Conditions: BODIPY lipid droplet fluorescence, 18-24 h; for cell number change: measured here: cell count max response, cells fed with added oleic acid
How it was run: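 Laser-scanning cytometry quantifies lipid droplet accumulation (500–530 nm total intensity; droplet/cell object ratio) in oleic acid-fed (400 uM added) Drosophila S3 cells treated with a concentration series. 20 uM Triacsin C defined 100% inhibition.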

[1] = measured here: cell number channel AC50, cells fed with added oleic acid
[2] = measured here: lipid fluorescence (Fed channel) AC50, cells fed with added oleic acid

| Structure (SMILES) | cell number change [%] | AC50 [1] | AC50 [2] |
| --- | --- | --- | --- |
| COC(=O)c1sc2nc(C)nc(SCC(=O)Nc3sccc3C(N)=O)c2c1C | 22.2 | 0.00517 µM [rising, full curve, poor fit] | 0.0184 µM [rising, full curve, poor fit] |
| O=S(=O)(c1ccc(-c2cn3ccccc3n2)cc1)N1CCOCC1 |  | 0.461 µM [rising, full curve] |  |
| CCc1nc(Nc2ccc3nccnc3c2)c2oc3ccccc3c2n1 | -22 |  | 14.6 µM [falling, partial curve, poor fit] |
| CC12CCC(C(=O)NCc3ccc(Cl)cc3)(OC1=O)C2(C)C (centres undefined) | -32.4 | 13 µM [falling, partial curve, poor fit] |  |
| CC(C)OCCCNC(=O)CN1C(=O)/C(=C/c2ccccc2F)Oc2ccccc21 | 29.6 |  | 0.82 µM [rising, full curve] |
| COc1ccc(NC(=O)[C@H](C)NC(=O)C2CCN(S(=O)(=O)c3ccc(OC)cc3)CC2)cc1 | 11.3 |  | 6.51 µM [falling, single point] |
| COc1ccccc1N1CCN(C(=O)CSc2nc3ccccc3nc2N2CCC(C)CC2)CC1 | 97.1 | 23.1 µM [rising, partial curve] |  |
| COc1ccc(N2C(=O)C3NN=C(C(=O)OCc4ccccc4)C3C2=O)cc1 (centres undefined) | 26.6 | 0.103 µM [rising, full curve, poor fit] |  |
| Cc1ccc(CN(C)c2nc(-c3cccnc3)nc3ccccc23)o1 | 11.7 |  |  |
| CCOc1cc(S(=O)(=O)NCCCN2CCOCC2)c(C)cc1C | -0.867 |  |  |
| CCOc1ccc(NC(=O)CN(C)C(=O)c2ccccc2SCC(=O)N2CCCC2)cc1OCC | -9.34 |  | 0.651 µM [rising, full curve, poor fit] |
| O=C(NC(=S)NCCO)c1sc2ccccc2c1Cl | -14.3 |  | 14.1 µM [falling, single point] |
| COc1cccc2c1cc1c(=O)n(CC(=O)NCc3ccccn3)nc(C)n12 | -12.1 |  | 29.1 µM [rising, partial curve] |
| COC(=O)CN1C(=O)COc2ccc(Cl)cc21 | -2.15 |  | 0.13 µM [rising, full curve, poor fit] |
| CSc1nc2c(c(=O)[nH]1)CCCC2 | -56.2 | 5.8 µM [falling, full curve] |  |
| COc1cccc2sc(N3CCN(C(=O)c4ccco4)CC3)nc12 | -25 |  |  |
| OCCn1c(-c2ccccc2)csc1=Nc1ccccc1 | 18.5 |  | 0.116 µM [rising, full curve] |
| COC(=O)c1sc(NC(=O)CC(C)C)c(C(=O)OC)c1C | 26.5 | 0.259 µM [rising, full curve, poor fit] | 25.9 µM [rising, partial curve] |
| Cc1ccc(-n2c(O)c(C=Nc3ccc4c(c3)OCO4)c3ccccc3c2=O)cc1C | -0.406 |  | 0.082 µM [falling, full curve, poor fit] |
| Cc1ccc(C(=O)Oc2ccccc2N2C(=O)C3C4CCC(C4)C3C2=O)cc1 (centres undefined) | -35.7 | 1.84 µM [falling, full curve, poor fit] | 1.64 µM [falling, full curve, poor fit] |

Shown with each value named: 2 of the compounds above.
O=S(=O)(c1ccc(-c2cn3ccccc3n2)cc1)N1CCOCC1
  AC50 [1]: 0.461 µM [rising, full curve]
Cc1ccc(-n2c(O)c(C=Nc3ccc4c(c3)OCO4)c3ccccc3c2=O)cc1C
  cell number change [%]: -0.406
  AC50 [2]: 0.082 µM [falling, full curve, poor fit]

Filtered by structure, the entries above containing two or more sulfur atoms.

| Structure (SMILES) | cell number change [%] | AC50 [1] | AC50 [2] |
| --- | --- | --- | --- |
| COC(=O)c1sc2nc(C)nc(SCC(=O)Nc3sccc3C(N)=O)c2c1C | 22.2 | 0.00517 µM [rising, full curve, poor fit] | 0.0184 µM [rising, full curve, poor fit] |
| O=C(NC(=S)NCCO)c1sc2ccccc2c1Cl | -14.3 |  | 14.1 µM [falling, single point] |

Additional records follow:

| Structure (SMILES) | cell number change [%] | AC50 [1] | AC50 [2] |
| --- | --- | --- | --- |
| Cc1ccc(-c2nnc(SCc3nc4ccccc4[nH]3)n2Cc2ccco2)cc1 | -33.3 | 29.1 µM [falling, single point] |  |
| Cc1ccccc1CN1CCCC(C(=O)Nc2ccc(-c3ccn[nH]3)cc2)C1 (centres undefined) | 30.5 |  | 16.4 µM [rising, partial curve] |
| Cc1ccc(C(=O)COC(=O)c2ccccc2NC(=O)c2ccccc2)cc1[N+](=O)[O-] | 3.07 | 6.51 µM [falling, single point] |  |
| CC1=NN(C(N)=S)C(=O)C1N=Nc1ccc(Cl)cc1Cl (centres undefined) | -35.7 | 8.2 µM [falling, partial curve] |  |
| COc1cc2c(cc1OC)CN(C(=S)Nc1c(C)cccc1C)CC2 | -17.1 |  | 0.461 µM [falling, full curve, poor fit] |
| O=C(Nc1ccc2c(c1)OCCO2)c1ccc(S(=O)(=O)N2CCCCC2)cc1 | -4 |  |  |
| Cc1ccc(C2=N/C(=C/c3cccs3)C(=O)N2Nc2ccccc2)cc1 |  | 4.11 µM [rising, partial curve, poor fit] | 6.51 µM [rising, partial curve] |
| O=C(Nc1ccc(CN2CCOCC2)cc1)c1ccc(F)cc1 | -8.52 |  | 29.1 µM [falling, single point] |
| O=C(COc1ccccc1)NN1C(=O)CSC1=S | -43.4 |  | 29.1 µM [falling, single point] |
| O=C(Cn1cnc2c(nnn2Cc2ccc(F)cc2)c1=O)Nc1ccccc1 | 18.8 | 0.58 µM [rising, partial curve, poor fit] | 29.1 µM [falling, single point] |
| O=C(N/N=C/c1ccc([N+](=O)[O-])o1)c1ccc2c(c1)OCO2 |  | 6.51 µM [falling, partial curve, poor fit] |  |
| Nc1nnc(SCC(=O)Nc2ccc(F)c(Cl)c2)n1-c1ccccc1 | 5.21 |  | 1.46 µM [rising, full curve] |
| COc1cc2c(cc1OC)C(COc1cccc(C(F)(F)F)c1)NCC2 (centres undefined) | 8.4 |  | 6.51 µM [rising, single point] |
| CCOC(=O)c1[nH]c2ccc(C)cc2c1NC(=O)CN1CCCCC1 | 68.1 | 18.4 µM [rising, partial curve] | 2.31 µM [rising, partial curve] |
| Cn1c(NCc2cc(Br)ccc2O)nc2ccccc21 | -32.4 | 29.1 µM [falling, single point] |  |
| Cc1nc(N2CCCCC2)c2c(C)c(C(=O)Nc3ccccc3C(F)(F)F)sc2n1 | -16.5 |  | 29.1 µM [falling, single point] |
| CN1CCSc2ccc(C(=O)Nc3cccc(F)c3)cc21 | -2.45 |  |  |
| O=C1OCCC1Sc1nnc(-c2ccccc2)o1 (centres undefined) | -9.66 |  | 3.26 µM [falling, full curve, poor fit] |
| CCCC(C)NC(=O)COC(=O)c1ccc(Cl)c(S(N)(=O)=O)c1 (centres undefined) | -16.6 |  |  |
| Cc1c(CCO)c(=O)[nH]n1S(=O)(=O)c1cccc(C(F)(F)F)c1 | -32.4 | 3.55 µM [falling, full curve] | 2.24 µM [falling, full curve] |

| Structure (SMILES) | cell number change [%] | AC50 [1] | AC50 [2] |
| --- | --- | --- | --- |
| O=C(CN(C(=O)CNS(=O)(=O)c1ccccc1)c1ccc(Cl)cc1)NCC1CCCO1 (centres undefined) | -19.2 |  | 0.0058 µM [rising, full curve, poor fit] |
| Cc1nc2ccc(S(=O)(=O)NCC(=O)N3CCN(c4ccccc4)CC3)cc2s1 | -10.6 |  |  |
| COCCOC1CCN(C(=O)C2CCC(=O)N(CCc3ccccc3)C2)CC1 (centres undefined) | -9.83 |  | 6.51 µM [falling, single point] |
| COc1ccc(C2=NN(C(=O)CN3CCCCC3)C(c3ccc(C)cc3)C2)cc1 (centres undefined) |  |  | 6.51 µM [rising, single point] |
| Cc1cccc(C(=O)NCC(=O)NC(C)c2ccc(-n3ccnc3)cc2)c1 (centres undefined) |  | 0.82 µM [rising, partial curve] | 0.326 µM [rising, partial curve, poor fit] |
| CCN1CCc2c(sc(NC(=O)c3ccc(S(=O)(=O)N4CCOCC4)cc3)c2C(N)=O)C1 |  | 6.51 µM [falling, single point] |  |
| CCc1ccc(C2N(c3ccc(OC)cc3)C(=O)C3CCCN32)cc1 (centres undefined) | 38.3 | 6.51 µM [rising, single point] |  |
| CC(C(=O)Nc1ccc(Cl)cc1Cl)N1C(=O)NC2(CCCCCCC2)C1=O (centres undefined) | -31.8 | 0.058 µM [falling, full curve, poor fit] | 25.9 µM [falling, single point] |
| Cc1cc([N+](=O)[O-])c(C(C)(C)C)cc1N | 33.4 | 20.6 µM [rising, single point] |  |
| O=C(CCSc1nc(-c2ccco2)cc(C(F)(F)F)n1)N1CCN(c2ccccn2)CC1 | -13.2 |  | 0.92 µM [rising, partial curve, poor fit] |
| Cc1cccc(-n2nc3c(c2NC(=O)C(C)C)CSC3)c1 | 31.5 | 0.116 µM [rising, full curve, poor fit] | 29.1 µM [rising, single point] |
| CCOc1cc(/C=N/NC(=O)c2cccnc2)cc(Br)c1OCC(N)=O | -55.4 |  |  |
| CC(C)c1ccc(NC2CCCN(C(=O)C3=NN(C)C(=O)CC3)C2)cc1 (centres undefined) | 1.18 |  | 0.517 µM [falling, full curve, poor fit] |
| COc1ccc(-n2nc(C(=O)N3CCCCC3)c(C)c(C#N)c2=O)cc1 | 15 |  |  |
| Cc1cc2ncn(C(=O)c3c(-c4ccccc4Cl)noc3C)c2cc1C | -34.1 | 29.1 µM [falling, single point] |  |
| c1ccc(-n2nnnc2NCCc2c[nH]c3ccccc23)cc1 | -11.4 |  |  |
| COc1ccc(Nc2nc(OC)nc(N3CCN(c4ccc(OC)cc4)CC3)n2)cc1 |  | 1.3 µM [rising, partial curve] | 1.64 µM [rising, partial curve] |
| CCCn1c(=O)c(C(=O)NNS(=O)(=O)c2ccc(NC(=O)OC)cc2)c(O)c2ccccc21 | 23 |  | 29.1 µM [rising, single point] |
| CCOc1ccc(NC(=O)c2nnn(CC(=O)Nc3ccccc3OC)c2N)cc1 | -23 |  |  |
| c1ccc(SCc2nc(-c3ccncc3)n[nH]2)nc1 | -30.8 | 29.1 µM [falling, single point] | 29.1 µM [falling, single point] |
